# According to publication PMC7819943, “Rice protein-binding microarrays: a tool to detect cis-acting elements near promoter regions in rice”:
# Sequences of proteins named here, by UniProt entry; tags and fusion partners are left off.
# UniProt Q0JBA9, entry or part of it: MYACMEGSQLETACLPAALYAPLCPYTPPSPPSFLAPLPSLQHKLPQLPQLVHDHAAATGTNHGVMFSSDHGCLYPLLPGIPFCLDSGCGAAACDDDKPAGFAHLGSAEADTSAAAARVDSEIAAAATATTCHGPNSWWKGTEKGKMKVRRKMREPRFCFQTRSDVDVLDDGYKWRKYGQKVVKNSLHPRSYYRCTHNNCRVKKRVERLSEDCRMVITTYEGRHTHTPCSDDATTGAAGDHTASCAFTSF
# The other results are listed elsewhere or left out.
# Molecular target: OsWRKY34 (Oryza sativa, UniProt Q0JBA9 1-250)
# Experiment: protein-binding microarray (RPBM); PBS, 2% BSA, 51.3 ng/ul salmon testes DNA, 50 uM zinc acetate, 200 nM TF, 25 C, 1 h; high values mean tight binding
# Settings: protein: recombinant; tags: N-terminal polyhistidine and DsRed monomer fusion (pET32a); label: CyDye5-dUTP incorporated in the synthesized complementary strand; 3' TTTTT single-stranded linker to array surface; dsDNA, one strand shown
# Method in brief: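 An Axon 4000B scanner gave the binding signal as per-feature fluorescence intensity in arbitrary units. This followed washing of a custom Agilent array that had been incubated for 1 h at 25 °C with 200 nM protein in PBS, 2% BSA, salmon testes DNA and 50 µM zinc acetate. The proteins were transcription factors fused at the N-terminus to polyhistidine and DsRed, expressed in E. coli BL21-CodonPlus and purified on Ni–NTA.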
row,Sequence,binding signal
1,TTGCTCTTGCAGTCTGGCTGTTGCTGCTGTACACACTAGACGGAGTCACCTAGTGCAG,8070 fluorescence intensity (a.u.)
2,TTTGGCCCGTTTCCTTCCGTTTTCATGCTGGTCTCGAGTGCGGAGTCACCTAGTGCAG,9110 fluorescence intensity (a.u.)
3,CCCACCTCCACCGCGCCCACGAATCCATTCCATTCCATTCCGGAGTCACCTAGTGCAG,10800 fluorescence intensity (a.u.)
4,GATTATCCTCCTTTCCAGTTTCCACTGTTGCCGCTGGGGCCGGAGTCACCTAGTGCAG,9940 fluorescence intensity (a.u.)
5,TGGTCCTTGATAATTTGTTGGTCTTGTAGCGTGGGTGTTTCGGAGTCACCTAGTGCAG,8820 fluorescence intensity (a.u.)
6,TGCTTGTGAAATTGTTGTGCATTGAAGTTGGTTTCATTTTCGGAGTCACCTAGTGCAG,10800 fluorescence intensity (a.u.)
7,TATTGATTTATGTTTTTTAGGTTGTTGCTGATTATACATACGGAGTCACCTAGTGCAG,10400 fluorescence intensity (a.u.)
8,CACGCGCGCACTCGTCTCGCCGCGTCCACACCCATCGGCTCGGAGTCACCTAGTGCAG,8920 fluorescence intensity (a.u.)
9,TCCTGATCGGCCGGTTCGTCGTTTTCATCCGCGACTCCGACGGAGTCACCTAGTGCAG,8510 fluorescence intensity (a.u.)
10,CAACATGCTATACAATGATTTTTTTTTTTCATTTTTAAATCGGAGTCACCTAGTGCAG,8830 fluorescence intensity (a.u.)
11,CACCGTTTCCTTCTCTCTTGTCCTCAAGCTGTCGTTGGGTCGGAGTCACCTAGTGCAG,9280 fluorescence intensity (a.u.)
12,CATTAATTCCAACATATAGTACTCCGCCATTTTGACTCGCCGGAGTCACCTAGTGCAG,8640 fluorescence intensity (a.u.)
13,ATCACAGTGTTCCTGCCTGATGATCCCTCACCCAGATGACCGGAGTCACCTAGTGCAG,8470 fluorescence intensity (a.u.)
14,CTTTGTTTGCGCTGGTAGCCGCCGCCGTGACATGCGCTCACGGAGTCACCTAGTGCAG,9060 fluorescence intensity (a.u.)
15,TCCATTTCTTGCGCTTCTTGGTTTTGTCTGGGAACTATTGCGGAGTCACCTAGTGCAG,10600 fluorescence intensity (a.u.)
16,TTTCTTTCCGATTGCTTCCGTTCCCAGTGACTTATATTATCGGAGTCACCTAGTGCAG,8620 fluorescence intensity (a.u.)
17,GCCGTTGCCACTAATCCGCCTGGCCTTCGCGCTAGCCTTCCGGAGTCACCTAGTGCAG,8500 fluorescence intensity (a.u.)
18,ACTCTTGTCCTTACACCTCCAGTAAAAGAAGTTAGCTAATCGGAGTCACCTAGTGCAG,8500 fluorescence intensity (a.u.)
19,CAACCGTCTCCACTTCCCTCCCCACCGCGCCAAATTCCCACGGAGTCACCTAGTGCAG,8730 fluorescence intensity (a.u.)
20,CTTCCTTTCTCCCTATTGGCACCACTAGATTTGACCTTCGCGGAGTCACCTAGTGCAG,8400 fluorescence intensity (a.u.)
21,ACTGATACGGACGTGGGCCGCTTTTGTTTGAACACTCTCACGGAGTCACCTAGTGCAG,10700 fluorescence intensity (a.u.)

row,Sequence,binding signal
1,GCAGGGCGATGGAGGTGGTGGTGGGCTTGGCCGCGGCGGCCGGAGTCACCTAGTGCAG,10400 fluorescence intensity (a.u.)
2,GATCCACCATGCCACCACCTGCTATTGCATTTAGCTTCTTCGGAGTCACCTAGTGCAG,10400 fluorescence intensity (a.u.)
3,CGATATGTGTTTATAGCTGGCTTACAGTCCGCTATTGTACCGGAGTCACCTAGTGCAG,8260 fluorescence intensity (a.u.)
4,CTCTCTCTCGCTCTTCAAATCCAGCTGCTGCCGTACGAACCGGAGTCACCTAGTGCAG,9680 fluorescence intensity (a.u.)
5,CTCGACGCTGCTCCTCTCCCACTCCTTCGCGTTCACCTTCCGGAGTCACCTAGTGCAG,11600 fluorescence intensity (a.u.)
6,CCTCGTCCGCCTTGGTCTTCTTCCAGCCGAGGAGCAACCGCGGAGTCACCTAGTGCAG,8510 fluorescence intensity (a.u.)
7,AATCCGGTCAGTCTGCGAGTGAGCTCACACCTCGATCCTCCGGAGTCACCTAGTGCAG,8160 fluorescence intensity (a.u.)
8,AGCTACATACGTACCTACGTTACGTTAATTTCTTGCTTGCCGGAGTCACCTAGTGCAG,9350 fluorescence intensity (a.u.)
9,AGTGTTTTGTTTTCTGAAGTTCAGATTACTCTACTATTGTCGGAGTCACCTAGTGCAG,8230 fluorescence intensity (a.u.)
10,ACCAACCCCTGCATTGACCTCACCTCACCTCACTCATCCCCGGAGTCACCTAGTGCAG,8880 fluorescence intensity (a.u.)
11,TCTTATTGACTATTTTCCAAAAGGTTATGTTTTCTTGCTACGGAGTCACCTAGTGCAG,8890 fluorescence intensity (a.u.)
12,ATATGCAAAATTCGCATGCCCGCTCATCGGCCTTTGTCACCGGAGTCACCTAGTGCAG,8100 fluorescence intensity (a.u.)
13,AACCACGCGCCCTACCCCGCAGCCTCCTTGTGCACGCCCGCGGAGTCACCTAGTGCAG,9070 fluorescence intensity (a.u.)
14,CTCTACGTCACCTTCGCGCTCGTCATCCTGCTCCTCCTCACGGAGTCACCTAGTGCAG,11700 fluorescence intensity (a.u.)
15,CCTCGTACACCTCATCTGTCGACATCTTAGTTATTCACCACGGAGTCACCTAGTGCAG,14000 fluorescence intensity (a.u.)
16,GCATTGCTGCTGCTGAAGCTGAGCTCTCTCCGTTTCAACTCGGAGTCACCTAGTGCAG,10900 fluorescence intensity (a.u.)
17,GCCGCCTGAACTTTTTCTTTTTTGCGAGGATGTTATTTTTCGGAGTCACCTAGTGCAG,9000 fluorescence intensity (a.u.)
18,GCAGCAGCACCACCACCACCGCTTCGTCCGCCCCGTGCCCCGGAGTCACCTAGTGCAG,9610 fluorescence intensity (a.u.)
19,ACACCATTAATACCCGGTCTCACCTCTCATACGCACACAACGGAGTCACCTAGTGCAG,8740 fluorescence intensity (a.u.)
20,TTCTACTCTATGCATGAACTTCACCTTTATCGATCTAAAACGGAGTCACCTAGTGCAG,11800 fluorescence intensity (a.u.)
21,ATATGCTCCGTCCTGCTTTGCCTTGTGTTAATGTGTGTTGCGGAGTCACCTAGTGCAG,10100 fluorescence intensity (a.u.)

# Reformatted as tab-separated lines: part of the list above.
row	Sequence	binding signal
9	AGTGTTTTGTTTTCTGAAGTTCAGATTACTCTACTATTGTCGGAGTCACCTAGTGCAG	8230 fluorescence intensity (a.u.)
10	ACCAACCCCTGCATTGACCTCACCTCACCTCACTCATCCCCGGAGTCACCTAGTGCAG	8880 fluorescence intensity (a.u.)
11	TCTTATTGACTATTTTCCAAAAGGTTATGTTTTCTTGCTACGGAGTCACCTAGTGCAG	8890 fluorescence intensity (a.u.)
12	ATATGCAAAATTCGCATGCCCGCTCATCGGCCTTTGTCACCGGAGTCACCTAGTGCAG	8100 fluorescence intensity (a.u.)
13	AACCACGCGCCCTACCCCGCAGCCTCCTTGTGCACGCCCGCGGAGTCACCTAGTGCAG	9070 fluorescence intensity (a.u.)
14	CTCTACGTCACCTTCGCGCTCGTCATCCTGCTCCTCCTCACGGAGTCACCTAGTGCAG	11700 fluorescence intensity (a.u.)
15	CCTCGTACACCTCATCTGTCGACATCTTAGTTATTCACCACGGAGTCACCTAGTGCAG	14000 fluorescence intensity (a.u.)
16	GCATTGCTGCTGCTGAAGCTGAGCTCTCTCCGTTTCAACTCGGAGTCACCTAGTGCAG	10900 fluorescence intensity (a.u.)
17	GCCGCCTGAACTTTTTCTTTTTTGCGAGGATGTTATTTTTCGGAGTCACCTAGTGCAG	9000 fluorescence intensity (a.u.)
18	GCAGCAGCACCACCACCACCGCTTCGTCCGCCCCGTGCCCCGGAGTCACCTAGTGCAG	9610 fluorescence intensity (a.u.)
19	ACACCATTAATACCCGGTCTCACCTCTCATACGCACACAACGGAGTCACCTAGTGCAG	8740 fluorescence intensity (a.u.)
